These results are taken from publication PMC12034769.

Sequences of proteins named here, by UniProt entry; tags and fusion partners are left off. A change or cut given only in a name is not applied to a line headed by its entry.
UniProt P19838: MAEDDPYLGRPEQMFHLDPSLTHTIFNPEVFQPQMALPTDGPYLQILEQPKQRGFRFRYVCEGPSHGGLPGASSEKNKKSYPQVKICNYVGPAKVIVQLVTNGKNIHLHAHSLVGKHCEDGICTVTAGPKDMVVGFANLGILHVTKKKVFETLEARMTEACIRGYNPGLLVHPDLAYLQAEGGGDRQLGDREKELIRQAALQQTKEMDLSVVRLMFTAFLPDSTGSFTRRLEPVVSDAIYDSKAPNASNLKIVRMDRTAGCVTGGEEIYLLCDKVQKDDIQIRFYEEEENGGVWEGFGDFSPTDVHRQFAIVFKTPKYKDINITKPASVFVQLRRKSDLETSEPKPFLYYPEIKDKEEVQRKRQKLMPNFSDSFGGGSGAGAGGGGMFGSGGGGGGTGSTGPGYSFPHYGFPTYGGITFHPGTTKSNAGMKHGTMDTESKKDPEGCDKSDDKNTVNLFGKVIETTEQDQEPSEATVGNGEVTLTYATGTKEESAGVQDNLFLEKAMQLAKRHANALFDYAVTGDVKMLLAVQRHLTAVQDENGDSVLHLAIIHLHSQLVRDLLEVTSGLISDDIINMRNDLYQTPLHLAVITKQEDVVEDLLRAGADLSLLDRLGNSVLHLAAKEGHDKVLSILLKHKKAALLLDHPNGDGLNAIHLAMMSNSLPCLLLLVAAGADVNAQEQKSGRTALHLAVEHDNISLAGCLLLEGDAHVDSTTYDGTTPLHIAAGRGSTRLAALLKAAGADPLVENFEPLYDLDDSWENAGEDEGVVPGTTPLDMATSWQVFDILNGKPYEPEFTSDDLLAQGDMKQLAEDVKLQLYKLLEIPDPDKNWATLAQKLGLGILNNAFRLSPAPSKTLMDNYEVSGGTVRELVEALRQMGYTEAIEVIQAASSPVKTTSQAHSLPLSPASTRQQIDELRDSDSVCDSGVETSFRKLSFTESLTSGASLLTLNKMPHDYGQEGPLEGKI

Assay [1] has as its target T1, ACAT1 as immunoprecipitated for mass spectrometry and in Supplementary Fig. 7f-h (construct not told) (human (in HCT116)) (UniProt P24752).
T1 sequence: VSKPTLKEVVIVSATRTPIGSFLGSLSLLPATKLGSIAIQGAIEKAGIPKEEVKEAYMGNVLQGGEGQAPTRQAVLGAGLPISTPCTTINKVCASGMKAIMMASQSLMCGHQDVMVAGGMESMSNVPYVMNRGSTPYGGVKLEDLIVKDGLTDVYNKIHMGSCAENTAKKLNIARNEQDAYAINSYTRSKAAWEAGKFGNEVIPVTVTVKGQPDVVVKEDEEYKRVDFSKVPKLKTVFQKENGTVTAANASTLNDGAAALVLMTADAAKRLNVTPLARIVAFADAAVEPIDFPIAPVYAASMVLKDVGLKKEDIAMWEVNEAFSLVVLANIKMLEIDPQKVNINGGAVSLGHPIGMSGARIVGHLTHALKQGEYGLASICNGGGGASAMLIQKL
The experiment in a line: affinity purification with mass spectrometry; nuclear ACAT1 immunoprecipitated from the nucleus of HCT116 cells; bound proteins analysed by mass spectrometry.

In assay [2] the target is T1, ACAT1 as immunoprecipitated for mass spectrometry and in Supplementary Fig. 7f-h (construct not told) (human (in HCT116)). The experiment in a line: affinity purification with mass spectrometry; mass spectrometry analysis of the proteins bound to ACAT1; cells not given.

No constants are given. Whether binding was seen depends on the method and setting. Binding seen in cells or lysates may run through a third protein. A yes stands for co-enrichment or nearness to the bait. Other partners may have been found.

For the molecule “nuclear factor-kappa B 1 (NFKB1) as identified by mass spectrometry (from UniProt P19838)”, the binding entry in assay [1] is reported as “binds”.

B1: protein phosphatase 1A (PPM1A), endogenous human (enzyme, UniProt P35813 1-382)
chain: MGAFLDKPKMEKHNAQGQGNGLRYGLSSMQGWRVEMEDAHTAVIGLPSGLESWSFFAVYDGHAGSQVAKYCCEHLLDHITNNQDFKGSAGAPSVENVKNGIRTGFLEIDEHMRVMSEKKHGADRSGSTAVGVLISPQHTYFINCGDSRGLLCRNRKVHFFTQDHKPSNPLEKERIQNAGGSVMIQRVNGSLAVSRALGDFDYKCVHGKGPTEQLVSPEPEVHDIERSEEDDQFIILACDGIWDVMGNEELCDFVRSRLEVTDDLEKVCNEVVDTCLYKGSRDNMSVILICFPNAPKVSPEAVKKEAELDKYLECRVEEIIKKQGEGVPDLVHVMRTLASENIPSLPPGGELASKRNVIEAVYNRLNPYKNDDTDSTSTDDMW
For the molecule B1, in assay [2], the binding entry is given as “binds”.
